Measurements reported in patent US20210087217A1, “NUCLEOTIDE HEMI-SULFATE SALT FOR THE TREATMENT OF HEPATITIS C VIRUS” (Atea Pharmaceuticals, Inc., priority 2017, published 2021).
Where a name gives a salt, the structure may show the parent alone.

Assay: Accelerated stability (40 ± 2° C./75 ± 5% RH) of Compound 2
Format: physicochemical
Details: 0 month
Experimental: Three conditions were tested: accelerated stability (40 2° C./75±5% RH) over a 6-month time period, ambient stability (25±2° C./60±5% RH) over a 9-month period, and stability under refrigerator conditions (5 3° C.) over a 9-month time period. The results for accelerated stability, ambient stability, and refrigerator conditions are shown in Table 23, Table 24, and Table 25, respectively.
After six months, the total related substance 1 impurities was only 0.08% and there was no detection of related substance 2 and isomers.

CNc1nc(N)nc2c1ncn2[C@@H]1O[C@H](CO[P@@](=O)(N[C@@H](C)C(=O)OC(C)C)Oc2ccccc2)[C@@H](O)[C@@]1(C)F [Compound 2, hemi-sulfate salt of isopropyl((S)-(((2R,3R,4R,5R)-5-(2-amino-6-(methylamino)-9H-purin-9-yl)-4-fluoro-3-hydroxy-4-methyltetrahydrofuran-2-yl)methoxy)(phenoxy)phosphoryl)-L-alaninate]
Microbial Testing: Mold and Yeast: <1 cfu/g
Microbial Testing: TAMC: <1 cfu/g
